Laboratory results: PubChem BioAssay AID1487 (National Center for Advancing Translational Sciences (NCATS), 2009)
This is one part of the list. These are further read-outs of the screen, such as a control signal, another cell line or another target. No call is given for them. The list favours compounds with an active or inconclusive main result. Potencies come from curve fits of mixed quality, noted in brackets.

Test: qHTS Assay for Modulators of Lamin A Splicing
Conditions: HeLa LMNA splicing GFP/RFP minigene ratio, 48 h
Outline: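 S3 HeLa cells stably expressing lamin A-EGFP splicing minigene plus DsRed2, 600 cells/well, 48 h compound exposure at 37C. Laser-scanning cytometry; analysed as GFP (500-530 nm)/RFP (575-640 nm) total intensity ratio; 0.5% DMSO vehicle.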

[1] = measured here: GFP splicing reporter channel
[2] = measured here: RFP viability control channel

SMILES	AC50 [1]	AC50 [2]
Oc1ccc(/C=N/Nc2cccc3cccnc23)c(O)c1	35.5 µM [rising, single point]	14.1 µM [rising, partial curve]
c1csc(CNc2ncnc3ccc(-c4ccoc4)cc23)c1	11.2 µM [falling, partial curve, poor fit]	7.08 µM [falling, partial curve, poor fit]
Cc1ccccc1-n1c(-c2ccc(=O)[nH]n2)n[nH]c1=S		0.631 µM [falling, full curve]
CN(C(=O)COc1ccccc1)c1nnc(C23CC4CC(CC(C4)C2)C3)s1		8.91 µM [falling, full curve]
C(=N\N(Cc1ccccc1)c1ccccc1)/c1ccco1		0.0178 µM [falling, full curve, poor fit]
Cc1cc(NC(=O)c2cccc(S(=O)(=O)N3CCOCC3)c2)c2ccccc2n1		17.8 µM [rising, partial curve]
Cc1nc(N2CCCC2)ncc1C(=O)Nc1ccc(OC(F)(F)F)cc1	0.891 µM [rising, full curve, poor fit]	
CCOC(=O)c1cc(-c2ccc(F)cc2)n(CCC(=O)Nc2nc3cc(C)c(C)cc3s2)c1C		20 µM [falling, single point]
OCCN1CCN(c2ncnc3c2cnn3-c2cccc(Cl)c2)CC1		0.1 µM [falling, full curve, poor fit]
C=CCn1c(N)c(C(=O)NCC2CCCO2)c2nc3ccccc3nc21 (stereo not drawn)		35.5 µM [rising, single point]
COc1ccc(Cn2ccn(CC(=O)Nc3cc(C)ccc3C)c(=O)c2=O)cc1		0.0141 µM [rising, full curve]
COc1cc(C2=NOC(C(=O)NCc3ccco3)C2)cc(OC)c1OC (stereo not drawn)	10 µM [falling, partial curve]	7.94 µM [falling, partial curve, poor fit]
CC(C)(C)C(=O)[C@@H]1[C@@H]2C(=O)N(Cc3ccccc3)C(=O)[C@@H]2[C@H]2c3ccccc3C=CN12	11.2 µM [rising, partial curve]	
CN1CCN(S(=O)(=O)c2ccc(NC(=S)NC(=O)c3ccc(Cl)cc3)cc2)CC1	31.6 µM [rising, single point]	35.5 µM [rising, single point]
O=Nc1c(O)n(Cc2ccc(Cl)cc2Cl)c2ccccc12	0.562 µM [falling, partial curve]	0.398 µM [falling, partial curve]
CC1=C(C#N)C2C(/C1=N/O)C2(C)C (stereo not drawn)		14.1 µM [rising, single point]
CC(=O)N(Cc1ccc(F)cc1)Cc1nc2ccccc2c(=O)[nH]1		11.2 µM [falling, partial curve]
Cc1cc(C)c2cc(CN(CCO)C(c3nnnn3Cc3ccc(F)cc3)C(C)C)c(=O)[nH]c2c1 (stereo not drawn)		35.5 µM [rising, single point]
CCCCNC(=S)Nc1ccc([N+](=O)[O-])cc1	7.08 µM [rising, partial curve]	12.6 µM [rising, partial curve]
CCCOc1ccc(C2C(=O)N(C3CCCCCC3)CC(=O)N2C(C)C)cc1OC (stereo not drawn)		8.91 µM [rising, partial curve]
O=C(Nc1nc2cc3c(cc2s1)OCCO3)c1cccc(S(=O)(=O)N2CCOCC2)c1		17.8 µM [rising, single point]
CCn1c2ccccc2c2cc(NC(=O)COC(=O)c3cc(S(N)(=O)=O)c(Cl)cc3Cl)ccc21		2.51 µM [falling, partial curve, poor fit]
COc1ccc(-c2cn3cccnc3n2)cc1NC(=O)c1ccccc1C(F)(F)F	5.62 µM [rising, single point]	
O=C(NC(=S)Nc1ccccc1N1CCCCC1)c1ccco1		22.4 µM [rising, partial curve, poor fit]
COc1cc(S(=O)(=O)NC2CCCCC2C)ccc1-n1cnnn1 (stereo not drawn)		35.5 µM [falling, partial curve, poor fit]
CC(C)OCCCNC(=O)CN1C(=O)/C(=C/c2ccccc2)Sc2ccccc21		17.8 µM [rising, single point]
CCOC(=O)c1cccc(-n2c(C)cc(C=O)c2C)c1	8.91 µM [rising, partial curve, poor fit]	11.2 µM [rising, single point]
CCCCNC(=O)c1onc(CSc2cc(C)ccc2C)c1C(=O)O	17.8 µM [rising, single point]	20 µM [rising, single point]
CCOc1ccc(NC(=O)CN(c2ccc(OC)cc2)S(C)(=O)=O)cc1		11.2 µM [rising, single point]
COc1cc(NC(=O)CCS(=O)(=O)c2ccc(Br)cc2)cc(OC)c1		0.891 µM [falling, full curve, poor fit]

Record cards, as listed above:
CC1=C(C#N)C2C(/C1=N/O)C2(C)C (stereo not drawn) is listed as AC50 [2]: 14.1 µM [rising, single point]
CC(C)OCCCNC(=O)CN1C(=O)/C(=C/c2ccccc2)Sc2ccccc21 is listed as AC50 [2]: 17.8 µM [rising, single point]
